The list is a part of this screen's results and no random one: it is rich in T/C values a quarter to a half above the control, in often repeated tests (any T/C) and in doses without a T/C. Further doses and runs are listed elsewhere. T/C gives the treated animals as a percentage of the vehicle group. Some doses have a count of surviving animals in place of a T/C: the source files T/C as zero there, which appears to mark a toxic dose or a test without result, not a measured value. Some survivor counts are full or nearly so, which does not show that the dose was tolerated: survival well below the control is almost never listed, so the zero probably covers shortened survival too. Survivors were counted at the toxicity check, usually on the fifth day, unless a day is given; later deaths do not show. Schedules are NCI's codes, taken here to give the interval after Q, in days (D) or hours (H), and the number of doses after X. Some entries hold several experiments; the results are listed from low to high. For survival time, this PubChem deposit counts one and a half times the control or more as active, and values a quarter to a half above the control carry no call in these data; other NCI protocols may use other cut-offs. Additions like (4×) say how often a value occurs here. Some T/C values carry the count of animals alive at the toxicity check (mostly the fifth day); without a count, all were alive then.
Tested on: AKR/Lw mice, AKR lymphoma ip, median survival T/C
Experiment: NCI In Vivo Anticancer Drug Screen. Data for tumor model Lymphoma AKR (Transplanted) (intraperitoneal) in AKR/Lw mice
Conditions: T/C endpoint: median survival time, higher T/C = longer survival
Protocol: The antitumor activity of compounds was measured in mice bearing transplantable tumors. Survival or tumor size were measured and the results are expressed as the measurement made in the treated group (T) divided by the measurement made in the vehicle treated control group (C). The tumor model used in this assay is Lymphoma AKR (Transplanted) (intraperitoneal) in AKR/Lw mice

[1] = dose: 100.0 mg/kg/injection, schedule: Q01DX009 (ip), vehicle: Klucel (hydroxypropylcellulose) (HPC)
[2] = dose: 200.0 mg/kg/injection, schedule: Q01DX009 (ip), vehicle: Klucel (hydroxypropylcellulose) (HPC)

In the case of COc1ccc2cc1Oc1ccc(cc1)C[C@H]1c3cc(c(OC)cc3CCN1C)Oc1c(OC)c(OC)cc3c1[C@H](C2)N(C)CC3, the survivor count (dose: 15.0 mg/kg/injection, schedule: Q01DX009 (ip), vehicle: saline) was 10 of 10, the survivor count (dose: 25.0 mg/kg/injection, schedule: Q04DX003 (ip), vehicle: saline) was 10 of 10 and the survivor count (dose: 30.0 mg/kg/injection, schedule: Q01DX009 (ip), vehicle: saline) was 10 of 10. For the same molecule, the T/C (dose: 50.0 mg/kg/injection, schedule: Q01DX001 (ip), vehicle: Klucel (hydroxypropylcellulose) (HPC)) was 138 % of control, the T/C (dose: 100.0 mg/kg/injection, schedule: Q01DX001 (ip), vehicle: saline) was 95, 100 (2×), 127 % of control and the survivor count [1] was 10 of 10. The survivor count (dose: 100.0 mg/kg/injection, schedule: Q04DX003 (ip), vehicle: Klucel (hydroxypropylcellulose) (HPC)) was 10 of 10, the survivor count [2] was 8 of 10 and the survivor count (dose: 200.0 mg/kg/injection, schedule: Q04DX003 (ip), vehicle: Klucel (hydroxypropylcellulose) (HPC)) was 9 of 10. The survivor count (dose: 400.0 mg/kg/injection, schedule: Q01DX009 (ip), vehicle: Klucel (hydroxypropylcellulose) (HPC)) was 9 of 10, the survivor count (dose: 400.0 mg/kg/injection, schedule: Q01DX009 (ip), vehicle: saline) was 8 of 10 and 9 of 10 and the survivor count (dose: 400.0 mg/kg/injection, schedule: Q04DX003 (ip), vehicle: Klucel (hydroxypropylcellulose) (HPC)) was 9 of 10 and 10 of 10.
For O=NN(CCCl)C(=O)NC1CC2CCC1C2 (configuration not stated), the T/C (dose: 1.2 mg/kg/injection, schedule: Q04DX004 (ip), vehicle: Klucel (hydroxypropylcellulose) (HPC)) was 135 % of control [9 of 10 alive], the T/C (dose: 2.0 mg/kg/injection, schedule: Q04DX008 (ip), vehicle: Klucel (hydroxypropylcellulose) (HPC)) was 130 % of control and the T/C (dose: 2.5 mg/kg/injection, schedule: Q04DX004 (ip), vehicle: Klucel (hydroxypropylcellulose) (HPC)) was 135 % of control. The T/C (dose: 3.5 mg/kg/injection, schedule: Q04DX008 (ip), vehicle: Klucel (hydroxypropylcellulose) (HPC)) was 138 % of control, the T/C (dose: 5.0 mg/kg/injection, schedule: Q04DX004 (ip), vehicle: Klucel (hydroxypropylcellulose) (HPC)) was 128 % of control and the T/C (dose: 5.0 mg/kg/injection, schedule: Q04DX004 (ip), vehicle: saline) was 146 % of control. For the same molecule, the T/C (dose: 5.0 mg/kg/injection, schedule: Q04DX008 (ip), vehicle: Klucel (hydroxypropylcellulose) (HPC)) was 141 % of control, the T/C (dose: 10.0 mg/kg/injection, schedule: Q04DX004 (ip), vehicle: Klucel (hydroxypropylcellulose) (HPC)) was 137 % of control and the T/C (dose: 10.0 mg/kg/injection, schedule: Q04DX004 (ip), vehicle: saline) was 130 % of control. The T/C (dose: 10.0 mg/kg/injection, schedule: Q04DX008 (ip), vehicle: Klucel (hydroxypropylcellulose) (HPC)) was 126 % of control, the T/C (dose: 20.0 mg/kg/injection, schedule: Q04DX004 (ip), vehicle: saline) was 128 % of control and the T/C (dose: 20.0 mg/kg/injection, schedule: Q04DX008 (ip), vehicle: Klucel (hydroxypropylcellulose) (HPC)) was 126 % of control. For the same molecule, the survivor count (dose: 40.0 mg/kg/injection, schedule: Q04DX004 (ip), vehicle: Klucel (hydroxypropylcellulose) (HPC)) was 10 of 10, the survivor count (dose: 40.0 mg/kg/injection, schedule: Q04DX004 (ip), vehicle: saline) was 10 of 10 and the survivor count (dose: 40.0 mg/kg/injection, schedule: Q04DX008 (ip), vehicle: Klucel (hydroxypropylcellulose) (HPC)) was 9 of 10. The survivor count (dose: 80.0 mg/kg/injection, schedule: Q04DX004 (ip), vehicle: saline) was 10 of 10.
In the case of COc1ccc(C2c3cc4c(c(OC)c3CC3OCC(=O)C32)OCO4)cc1OC (configuration not stated), the survivor count (dose: 12.5 mg/kg/injection, schedule: Q01DX009 (ip), vehicle: Klucel (hydroxypropylcellulose) (HPC)) was 9 of 10, the survivor count [1] was 10 of 10 and the survivor count [2] was 5 of 10.
COc1cc([C@@H]2c3cc4c(cc3[C@H](O)[C@H]3COC(=O)[C@@H]23)OCO4)cc(OC)c1OC was tested, and the survivor count (dose: 24.0 mg/kg/injection, schedule: Q01DX009 (ip), vehicle: Klucel (hydroxypropylcellulose) (HPC)) was 10 of 10, the survivor count (dose: 48.0 mg/kg/injection, schedule: Q01DX009 (ip), vehicle: Klucel (hydroxypropylcellulose) (HPC)) was 10 of 10 and the survivor count (dose: 96.0 mg/kg/injection, schedule: Q01DX009 (ip), vehicle: Klucel (hydroxypropylcellulose) (HPC)) was 5 of 10.
For NC(Cc1ccc([N+](=O)[O-])cc1)C(=O)O (configuration not stated), the survivor count (dose: 400.0 mg/kg/injection, schedule: Q01DX001 (ip), vehicle: saline) was 10 of 10.
For C[C@@H]1C[C@H]2[C@@H]3CCC4=CC(=O)C=C[C@]4(C)[C@@]3(F)[C@@H](O)C[C@]2(C)[C@@]1(O)C(=O)CO, the T/C (dose: 2.0 mg/kg/injection, schedule: Q01DX004 (sc), vehicle: saline) was 128 % of control, the T/C (dose: 4.0 mg/kg/injection, schedule: Q01DX004 (sc), vehicle: saline) was 132 % of control and the survivor count (dose: 4.5 mg/kg/injection, schedule: Q01DX004 (sc), vehicle: saline) was 10 of 10. The survivor count (dose: 6.7 mg/kg/injection, schedule: Q01DX004 (sc), vehicle: saline) was 10 of 10, the survivor count (dose: 10.0 mg/kg/injection, schedule: Q01DX004 (sc), vehicle: saline) was 10 of 10 and the survivor count (dose: 20.0 mg/kg/injection, schedule: Q01DX004 (sc), vehicle: saline) was 10 of 10. For the same molecule, the survivor count (dose: 40.0 mg/kg/injection, schedule: Q01DX004 (sc), vehicle: saline) was 10 of 10.
